Assay results published in publication PMC7806720, “Restoration of the reduced CLSP activity alleviates memory impairment in Alzheimer disease” (Translational Psychiatry, 2021).
Results are given in words; binding and its absence hold for the method and conditions named. Binding seen in cells or lysates may run through a third protein. Some results given as binding are weak or reduced against the parent protein; the word gives no strength.

Sequences of proteins named here, by UniProt entry; tags and fusion partners are left off. A change or cut given only in a name is not applied to a line headed by its entry. Residues count along the entry.
UniProt Q9NZT1: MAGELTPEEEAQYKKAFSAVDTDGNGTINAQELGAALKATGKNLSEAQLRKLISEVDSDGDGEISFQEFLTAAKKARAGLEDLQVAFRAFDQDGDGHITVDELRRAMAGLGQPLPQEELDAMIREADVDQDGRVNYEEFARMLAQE
UniProt Q15848, residues 19-244: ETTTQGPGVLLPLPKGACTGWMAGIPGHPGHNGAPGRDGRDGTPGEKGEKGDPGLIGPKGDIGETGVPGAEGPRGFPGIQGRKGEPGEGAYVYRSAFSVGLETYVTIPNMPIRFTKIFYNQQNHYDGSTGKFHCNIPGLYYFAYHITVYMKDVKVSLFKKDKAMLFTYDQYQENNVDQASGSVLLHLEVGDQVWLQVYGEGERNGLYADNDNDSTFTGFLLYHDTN
UniProt P02649, residues 19-317: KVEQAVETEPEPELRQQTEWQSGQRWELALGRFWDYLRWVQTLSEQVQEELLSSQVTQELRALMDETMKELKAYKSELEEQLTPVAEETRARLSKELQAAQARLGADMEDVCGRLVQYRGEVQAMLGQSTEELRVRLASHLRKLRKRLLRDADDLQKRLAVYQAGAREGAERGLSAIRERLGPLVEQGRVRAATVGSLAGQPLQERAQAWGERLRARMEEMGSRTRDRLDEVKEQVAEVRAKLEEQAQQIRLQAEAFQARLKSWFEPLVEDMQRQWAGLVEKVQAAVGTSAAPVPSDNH

Assays:
[1] = biological target: calmodulin-like skin protein (CLSP), C-terminally MycHis-tagged (human) (UniProt Q9NZT1); test: pull-down; CLSP-conjugated sepharose 4B beads; ApoE and adiponectin each in the presence or absence of the other (Supplementary Fig. S7A); details not shown
[2] = biological target: calmodulin-like skin protein (CLSP), C-terminally MycHis-tagged (human) (UniProt Q9NZT1); test: pull-down; lysates of F11 cells overexpressing C-terminally HA-tagged proteins mixed with CLSP-MycHis-conjugated sepharose 4B, 4 °C overnight; precipitates immunoblotted with HA and myc antibodies; only the target purified

binding [1] | binding [2] | Substance
binds |  | adiponectin (pull-down of Supplementary Fig. S7A) (from UniProt Q15848 19-244)
 | binds | apolipoprotein E3, C-terminally tagged with HA (from UniProt P02649 19-317)
 | binds | adiponectin, C-terminally tagged with HA (from UniProt Q15848 19-244)
